Source: PubChem BioAssay AID1671195 (Yale University, 2021)

- Screen: 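Regulators of LDL receptor activity judged by labelled LDL uptake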 (primary screen)
- Cells: human Huh7 hepatoma cells
- Knock-down reagent: siRNA pool against human genes, 18 nM
- Time to read-out: about 2 to 2.5 days of knockdown, then 8 h LDL uptake
- Challenge: DiI-labelled LDL at 30 µg/ml for 8 h, in lipoprotein-deficient serum medium
- Detection: 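Fluorescent LDL signal imaged in cells, scaled to the plate median, robust z-score for each replicate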
- Reading the numbers: robust z-score: higher = more LDL uptake after knockdown
- Active means: 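Active when two or more replicates show a robust z-score above 2 or below -2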
The whole screen tested about 22,000 reagents; this is a random part of them. About 1,510 of all reagents (6.9%) were called active. 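Active includes knockdowns raising or lowering LDL uptake; positive z-scores mean more uptake, negative mean less.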

| gene | PubChem SID | robust z-score, replicate 1 | robust z-score, replicate 2 | robust z-score, replicate 3 | activity call |
| --- | --- | --- | --- | --- | --- |
| MYO9B | SID442899588 | -0.786 | -0.558 | -0.58 | inactive |
| AHSP | SID442885398 | 1.13 | 2 | 1.46 | inactive |
| FIG4 | SID442883405 | 3.97 | 3.5 | 1.54 | active |
| PRKCB | SID442895189 | -0.578 | 0.717 | -0.573 | inactive |
| DPY19L2P3 | SID442904531 | -1.95 | -1.93 | -1.19 | inactive |
| YIPF5 | SID442896533 | -0.789 | -0.0142 | -0.0462 | inactive |
| C1QTNF4 | SID442887907 | 1.36 | 0.333 | 0.764 | inactive |
| VAV2 | SID442891037 | -0.495 | 0.736 | 0.775 | inactive |
| TEDDM1 | SID442901719 | -1.04 | -0.967 | -0.827 | inactive |
| CHAD | SID442884532 | -2.59 | -2.45 | -2.03 | active |
| EPN3 | SID442888360 | 1.08 | 0.639 | 0.479 | inactive |
| KRTAP17-1 | SID442900876 | -1.11 | -1.01 | -0.347 | inactive |
| LOC389107 (retired record) | SID442894882 | -0.216 | -0.0529 | -0.0601 | inactive |
| MRPS18A | SID442903794 | -1.14 | -1.77 | -1.27 | inactive |
| HSD17B10 | SID442890268 | 0.496 | 1.21 | -0.385 | inactive |
| LOC387781 (retired record) | SID442885071 | 2.09 | 1.49 | 1.5 | inactive |
| DMC1 | SID442897157 | -0.565 | 0.214 | -0.71 | inactive |
| TADA3 | SID442892882 | 0.251 | 0.171 | -0.0784 | inactive |
| PSG8-AS1 | SID442887241 | 0.894 | 0.74 | 1.23 | inactive |
| ZNF106 | SID442888182 | 0.0559 | 0.977 | 1.28 | inactive |
| FAM43A | SID442885907 | 1.5 | 0.461 | 2.02 | inactive |
| WASF2 | SID442886039 | 1.1 | 1.13 | 1.62 | inactive |
| SLCO4A1 | SID442892049 | 0.233 | -0.179 | 0.591 | inactive |
| NARS2 | SID442895783 | 0.52 | -0.157 | -0.981 | inactive |
| CAMP | SID442885730 | 1.41 | 1.66 | 1.1 | inactive |
| LOC389233 (retired record) | SID442891425 | 0.24 | 0.0672 | 0.557 | inactive |
| TRIM56 | SID442896938 | -0.155 | -0.318 | -0.513 | inactive |
| SLC22A23 | SID442890056 | 1.04 | 0.233 | 0.135 | inactive |
| C9orf40 | SID442884782 | 1.68 | 0.796 | 3.22 | inactive |
| DEFB115 | SID442891260 | 1.14 | -0.0642 | -0.15 | inactive |
| RNF121 | SID442885793 | 0.604 | 1.52 | 1.98 | inactive |
| FGF8 | SID442895828 | 0.169 | -0.771 | -0.0277 | inactive |
| EVA1C | SID442900164 | -0.962 | -0.451 | -0.752 | inactive |
| OR2AG2 | SID442893119 | -0.2 | 0.389 | 0.0694 | inactive |
| TRIM29 | SID442904324 | -1.4 | -2.21 | -1.15 | inactive |
| OR52I2 | SID442902883 | -0.887 | -1.62 | -0.997 | inactive |
| LOC401553 (retired record) | SID442899848 | -0.718 | -0.884 | -0.429 | inactive |
| CTPS1 | SID442901418 | -1.13 | -0.987 | -0.577 | inactive |
| LOC145845 | SID442902359 | -1.09 | -0.925 | -1.16 | inactive |
| SMTN | SID442893673 | 0.299 | 0.318 | -0.548 | inactive |
| LOC402232 (retired record) | SID442897192 | -0.209 | -0.15 | -0.711 | inactive |
| HMGN2P46 | SID442902361 | -1.05 | -0.903 | -1.22 | inactive |
| AHSA2P | SID442886892 | 0.812 | 0.672 | 1.63 | inactive |
| VN2R9P | SID442899231 | -0.628 | -0.633 | -0.52 | inactive |
| SOFU1 | SID442894772 | 0.0215 | -0.338 | 0.0195 | inactive |
| CD300LD | SID442904487 | -1.7 | -1.82 | -1.49 | inactive |
| IL2RB | SID442901790 | -0.736 | -1.26 | -0.882 | inactive |
| IRGQ | SID442896106 | 0.165 | -0.549 | -0.333 | inactive |
| CACNB1 | SID442900149 | -0.684 | -0.509 | -0.967 | inactive |
| FBLN7 | SID442896078 | -0.0135 | -0.247 | -0.447 | inactive |
| SPATA32 | SID442899893 | -0.691 | -0.828 | -0.531 | inactive |
| MAML2 | SID442896696 | -0.298 | -0.318 | -0.288 | inactive |
| MEGF10 | SID442896517 | -0.512 | -0.823 | 0.489 | inactive |
| FAAH2 | SID442891391 | 0.0416 | 0.538 | 0.297 | inactive |
| PRIM1 | SID442900511 | -0.884 | -0.877 | -0.549 | inactive |
| RPS27AP17 | SID442892181 | -0.169 | 0.0808 | 0.686 | inactive |
| CARD16 | SID442891962 | 0.238 | 0.186 | 0.251 | inactive |
| CERS3 | SID442883239 | 3.66 | 3.58 | 3.86 | active |
| MRPL19 | SID442889835 | -0.16 | 1.61 | 0.0575 | inactive |
| LOC139046 (retired record) | SID442899657 | 0.19 | -0.576 | -1.57 | inactive |
| DYNC1H1 | SID442898430 | -0.656 | -0.42 | -0.417 | inactive |
| NR4A1 | SID442893686 | 0.493 | 0.311 | -0.739 | inactive |
| ZNF26 | SID442890357 | 0.35 | -0.0306 | 0.966 | inactive |
| PTPRG | SID442893841 | -0.52 | 0.338 | 0.198 | inactive |
| ATP13A2 | SID442888259 | 0.868 | 1.21 | 0.186 | inactive |
| LOC390683 (retired record) | SID442886313 | 1.26 | 1.4 | 0.921 | inactive |
| ADCY8 | SID442899931 | -0.637 | -0.403 | -1.02 | inactive |
| LOC442032 (retired record) | SID442896766 | 0.388 | 0.658 | -1.98 | inactive |
| TMEM222 | SID442900728 | -0.701 | -1.19 | -0.505 | inactive |
| LINC01549 | SID442883781 | 2.11 | 2.57 | 2.31 | active |
| ARRDC1-AS1 | SID442890211 | 0.878 | 0.548 | -0.0818 | inactive |
| SOX6 | SID442898600 | -0.571 | -0.262 | -0.719 | inactive |
| ATP13A4 | SID442894461 | -0.112 | -0.356 | 0.27 | inactive |
| ADAM7 | SID442898351 | -0.0853 | -0.814 | -0.567 | inactive |
| ZNF273 | SID442888884 | 0.674 | 0.484 | 0.78 | inactive |
| ZG16B | SID442903458 | -1.5 | -1.17 | -1.23 | inactive |
| FAM153A | SID442886608 | 1.37 | 0.544 | 1.41 | inactive |
| ASIC5 | SID442889611 | 0.612 | 0.455 | 0.535 | inactive |
| YWHAG | SID442903224 | -1.19 | -1.59 | -0.96 | inactive |
| USP14 | SID442889869 | 0.296 | 0.765 | 0.43 | inactive |
| TIMM13 | SID442884344 | -2.09 | -1.45 | -2.4 | active |
| KRR1 | SID442893987 | 0.00681 | -0.646 | 0.601 | inactive |
| PTPN20 | SID442891615 | 0.606 | -0.189 | 0.375 | inactive |
| NOS2 | SID442897782 | -0.139 | -0.727 | -0.405 | inactive |
| BPNT1 | SID442896069 | -0.137 | -0.343 | -0.224 | inactive |
| TFF2 | SID442886309 | 0.792 | 1.23 | 1.56 | inactive |
| RNASET2 | SID442890242 | 0.578 | 0.193 | 0.56 | inactive |

4 entries from above, reformatted:
TMEM222 [SID442900728] — robust z-score, replicate 1 = -0.701; robust z-score, replicate 2 = -1.19; robust z-score, replicate 3 = -0.505; activity call = inactive
LINC01549 [SID442883781] — robust z-score, replicate 1 = 2.11; robust z-score, replicate 2 = 2.57; robust z-score, replicate 3 = 2.31; activity call = active
ARRDC1-AS1 [SID442890211] — robust z-score, replicate 1 = 0.878; robust z-score, replicate 2 = 0.548; robust z-score, replicate 3 = -0.0818; activity call = inactive
SOX6 [SID442898600] — robust z-score, replicate 1 = -0.571; robust z-score, replicate 2 = -0.262; robust z-score, replicate 3 = -0.719; activity call = inactive
